Test results as given in the supplement of paper PMC8728848.
The other results are listed elsewhere or left out.

Experiments:
Experiment in all cases: glycan array binding signal (z-score within array); higher = stronger binding
Conditions in all cases: glycan notation: IUPAC condensed, linker removed
Gal(b1-4)Glc = biological target: Gal(b1-4)Glc
Outline: (§1)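 Glycan array binding is given as a within-array Z-score, which can be read as non-binding when negative. The arrays, 3228 of them, came from the Consortium for Functional Glycomics database and were retained only where the protein sequence was available. Z-scores were averaged across arrays of the same protein sequence at different concentrations or buffers and across linkers.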

Gal(b1-4)Glc6S = biological target: Gal(b1-4)Glc6S
Outline: as §1

Gal(b1-4)GlcNAc = biological target: Gal(b1-4)GlcNAc
Outline: as §1

[1] = biological target: Gal(b1-4)GlcNAc(a1-6)Gal(b1-4)GlcNAc
Outline: as §1

Gal(b1-4)GlcNAc(b1-2)Man = biological target: Gal(b1-4)GlcNAc(b1-2)Man
Outline: as §1

[2] = biological target: Gal(b1-4)GlcNAc(b1-2)Man(a1-3)Man(b1-4)GlcNAc(b1-4)GlcNAc
Outline: as §1

[3] = biological target: Gal(b1-4)GlcNAc(b1-2)Man(a1-3)[Gal(b1-4)GlcNAc(b1-2)Man(a1-6)]Man(b1-4)GlcNAc(b1-4)GlcNAc
Outline: as §1

[4] = biological target: Gal(b1-4)GlcNAc(b1-2)Man(a1-3)[Gal(b1-4)GlcNAc(b1-2)Man(a1-6)]Man(b1-4)GlcNAc(b1-4)[Fuc(a1-6)]GlcNAc
Outline: as §1

[5] = biological target: Gal(b1-4)GlcNAc(b1-2)Man(a1-3)[Gal(b1-4)GlcNAc(b1-2)Man(a1-6)][Gal(b1-4)GlcNAc(b1-4)]Man(b1-4)GlcNAc(b1-4)[Fuc(a1-6)]GlcNAc
Outline: as §1

[6] = biological target: Gal(b1-4)GlcNAc(b1-2)Man(a1-3)[Gal(b1-4)GlcNAc(b1-2)Man(a1-6)][GlcNAc(b1-4)]Man(b1-4)GlcNAc(b1-4)[Fuc(a1-6)]GlcNAc
Outline: as §1

[7] = biological target: Gal(b1-4)GlcNAc(b1-2)Man(a1-3)[GlcNAc(b1-2)Man(a1-6)]Man(b1-4)GlcNAc(b1-4)GlcNAc
Outline: as §1

[8] = biological target: Gal(b1-4)GlcNAc(b1-2)Man(a1-3)[GlcNAc(b1-4)][Gal(b1-4)GlcNAc(b1-2)Man(a1-6)]Man(b1-4)GlcNAc(b1-4)GlcNAc
Outline: as §1

[9] = biological target: Gal(b1-4)GlcNAc(b1-2)Man(a1-3)[Man(a1-6)]Man(b1-4)GlcNAc(b1-4)GlcNAc
Outline: as §1

[10] = biological target: Gal(b1-4)GlcNAc(b1-2)Man(a1-6)Man(b1-4)GlcNAc(b1-4)GlcNAc
Outline: as §1

[11] = biological target: Gal(b1-4)GlcNAc(b1-2)Man(a1-6)[GlcNAc(b1-2)Man(a1-3)]Man(b1-4)GlcNAc(b1-4)GlcNAc
Outline: as §1

[12] = biological target: Gal(b1-4)GlcNAc(b1-2)Man(a1-6)[Man(a1-3)]Man(b1-4)GlcNAc(b1-4)GlcNAc
Outline: as §1

[13] = biological target: Gal(b1-4)GlcNAc(b1-2)[Gal(b1-4)GlcNAc(b1-4)]Man(a1-3)[Gal(b1-4)GlcNAc(b1-2)Man(a1-6)]Man(b1-4)GlcNAc(b1-4)GlcNAc
Outline: as §1

[14] = biological target: Gal(b1-4)GlcNAc(b1-2)[Gal(b1-4)GlcNAc(b1-4)]Man(a1-3)[Gal(b1-4)GlcNAc(b1-2)[Gal(b1-4)GlcNAc(b1-6)]Man(a1-6)]Man(b1-4)GlcNAc(b1-4)GlcNAc
Outline: as §1

[15] = biological target: Gal(b1-4)GlcNAc(b1-2)[Gal(b1-4)GlcNAc(b1-4)]Man(a1-3)[GlcNAc(b1-4)][Gal(b1-4)GlcNAc(b1-2)Man(a1-6)]Man(b1-4)GlcNAc(b1-4)GlcNAc
Outline: as §1

[16] = biological target: Gal(b1-4)GlcNAc(b1-2)[Gal(b1-4)GlcNAc(b1-4)]Man(a1-3)[GlcNAc(b1-4)][Gal(b1-4)GlcNAc(b1-2)[Gal(b1-4)GlcNAc(b1-6)]Man(a1-6)]Man(b1-4)GlcNAc(b1-4)GlcNAc
Outline: as §1

[17] = biological target: Gal(b1-4)GlcNAc(b1-2)[Gal(b1-4)GlcNAc(b1-6)]Man(a1-6)[Gal(b1-4)GlcNAc(b1-2)Man(a1-3)]Man(b1-4)GlcNAc(b1-4)GlcNAc
Outline: as §1

[18] = biological target: Gal(b1-4)GlcNAc(b1-2)[Gal(b1-4)GlcNAc(b1-6)]Man(a1-6)[Gal(b1-4)GlcNAc(b1-2)Man(a1-3)]Man(b1-4)GlcNAc(b1-4)[Fuc(a1-6)]GlcNAc
Outline: as §1

[19] = biological target: Gal(b1-4)GlcNAc(b1-2)[Gal(b1-4)GlcNAc(b1-6)]Man(a1-6)[GlcNAc(b1-4)][Gal(b1-4)GlcNAc(b1-2)Man(a1-3)]Man(b1-4)GlcNAc(b1-4)GlcNAc
Outline: as §1

[20] = biological target: Gal(b1-4)GlcNAc(b1-2)[Gal(b1-4)GlcNAc(b1-6)]Man(a1-6)[GlcNAc(b1-4)][Gal(b1-4)GlcNAc(b1-2)[Gal(b1-4)GlcNAc(b1-4)]Man(a1-3)]Man(b1-4)GlcNAc(b1-4)[Fuc(a1-6)]GlcNAc
Outline: as §1

[21] = biological target: Gal(b1-4)GlcNAc(b1-3)Gal(b1-3)GalNAc
Outline: as §1

[22] = biological target: Gal(b1-4)GlcNAc(b1-3)Gal(b1-3)GlcNAc
Outline: as §1

[23] = biological target: Gal(b1-4)GlcNAc(b1-3)Gal(b1-4)Glc
Outline: as §1

[24] = biological target: Gal(b1-4)GlcNAc(b1-3)Gal(b1-4)GlcNAc
Outline: as §1

[25] = biological target: Gal(b1-4)GlcNAc(b1-3)Gal(b1-4)GlcNAc(b1-2)Man(a1-3)[Gal(b1-4)GlcNAc(b1-3)Gal(b1-4)GlcNAc(b1-2)Man(a1-6)]Man(b1-4)GlcNAc(b1-4)GlcNAc
Outline: as §1

[26] = biological target: Gal(b1-4)GlcNAc(b1-3)Gal(b1-4)GlcNAc(b1-2)Man(a1-3)[Gal(b1-4)GlcNAc(b1-3)Gal(b1-4)GlcNAc(b1-2)Man(a1-6)]Man(b1-4)GlcNAc(b1-4)[Fuc(a1-6)]GlcNAc
Outline: as §1

B1: Awp1 (Candida glabrata) (protein)
chain: MSLITIFAFLIKATLVLSLDILTPTTLTGDQTFNEDVSVVSSLTLNDGSQYLFNNLLQIAPSSASVTANALAAVSVFTFSLPPSSSLSNSGTLIISNSNTGPSTEQHIVITPNVMANTGTITLSLAHTNTDSSSTLIIDPVTFYNTGTINYESIGSETNDPSLTGNILSIGSSGRTLQNLGTINLNAANSYYLLGTITENSGSINVQKGFLYVNALDFIGNTINLSTTTALAFISPVSQVVRVRGVFFGNIIASVGSSGTFSYNTQTGILTVTTNGVYSYDIGCGYNPALMSGQQETLSFQGNPYDTFLVLVNQPIPSDLTCAAVSSSITPSSSVEPSSSVVPSSSVEPSSSVEPSSSVEPSSSVEPSSSVEPSSSVEPSSSVEPSSSVEPSSSVEPSSSVEPSSSVEPSSSVEPSSSVEPSSSVEPSSSVEPSSSVEPSSSVEPSSSVEPSSSVEPSSLIVPSSSVEPSSSVLPSSSVVPSSSVEPSTPPIPSSSVEPSSSVVPSSPAVPSSSVEPSTPPIPSSSVVSASVFDTSSTLPSSPSVPPSSVSPSTISTPSSSAAPSSFCPTCVSSGTPPAPSSSAIVPTSSAGGGNGGDNREPGAAGQPGAAGQPGAAGQPGAAGQPGAAGQPGAAGQPGAAGQPGAAGQPGAAGQPGAAGQPGAGFGVGSEQPTPGAGAGSGSADGNQSGTGSGTGNGQQGSGQAGSGQAGSGQEGSGQAGSGQAGSGQAGSGQAGSGQAGLDNTASGQSEGGQASAMDGDQSGRDGQSNSGSLLQPNAQQGTGSGTGSDIGADQASGESPGQIGDAQPGSGTDQSSGRHSLAAEARTSQSHSLAADARTRSTTRQTSVIAPDTAPGTASGTAPGTAPGTAVVTTFHGCGTVNHKGMINILLALALLVLL
- glycan array binding signal (z-score) (Gal(b1-4)Glc): -0.336
- glycan array binding signal (z-score) (Gal(b1-4)Glc6S): 0.028
- glycan array binding signal (z-score) (Gal(b1-4)GlcNAc): 0.304
- glycan array binding signal (z-score) [1]: 3
- glycan array binding signal (z-score) (Gal(b1-4)GlcNAc(b1-2)Man): 0.36
- glycan array binding signal (z-score) [2]: -0.485
- glycan array binding signal (z-score) [3]: 0.579
- glycan array binding signal (z-score) [4]: -0.196
- glycan array binding signal (z-score) [5]: -0.89
- glycan array binding signal (z-score) [6]: -2.22
- glycan array binding signal (z-score) [7]: 0.253
- glycan array binding signal (z-score) [8]: -1.72
- glycan array binding signal (z-score) [9]: 0.057
- glycan array binding signal (z-score) [10]: 1.33
- glycan array binding signal (z-score) [11]: 0.086
- glycan array binding signal (z-score) [12]: 0.615
- glycan array binding signal (z-score) [13]: -0.236
- glycan array binding signal (z-score) [14]: 0.167
- glycan array binding signal (z-score) [15]: -0.307
- glycan array binding signal (z-score) [16]: -0.441
- glycan array binding signal (z-score) [17]: -1.7
- glycan array binding signal (z-score) [18]: 1.55
- glycan array binding signal (z-score) [19]: 0.129
- glycan array binding signal (z-score) [20]: -0.675
- glycan array binding signal (z-score) [21]: -1.28
- glycan array binding signal (z-score) [22]: 0.447
- glycan array binding signal (z-score) [23]: 1.62
- glycan array binding signal (z-score) [24]: 0.812
- glycan array binding signal (z-score) [25]: -0.117
- glycan array binding signal (z-score) [26]: 1.43
